Values quoted from earlier work in patent publication US20070071681A1, “Apparatus and method for computer modeling type 1 diabetes” (Entelos, Inc., priority 2005, published 2007).
At least one structure is not confirmed: it was looked up by name or label, or the drawing left a doubt.

Tested on: NOD mouse
Settings: Rapamycin, cited from earlier work

In the case of `CO[C@H]1C[C@@H]2CC[C@@H](C)[C@@](O)(O2)C(=O)C(=O)N2CCCC[C@H]2C(=O)O[C@H]([C@H](C)C[C@@H]2CC[C@@H](O)[C@H](OC)C2)CC(=O)[C@H](C)/C=C(\C)[C@@H](O)[C@@H](OC)C(=O)[C@H](C)C[C@H](C)/C=C/C=C/C=C/1C` [Rapamycin], the Remission (overtly diabetic NOD mice) is given as “fails to induce remission” and the Protection from diabetes (pre-diabetic NOD mice) is given as “protects”.
